These results are taken from patent US20130190248A1 (AGENSYS, INC., priority 2011, published 2013).

This series can be described thus: general procedure: solution-phase peptide synthesis; DEPC/DIEA; HATU/HOBT/DIEA. The settings on record: TFA salt.

As for “Fmoc-MeVal-Val-Dil-Dap-[2-(1H-imidazol-4-yl)ethyl]amine”, the step yield (coupling step) was 1% yield.
For the substance “(S)—N-((3R,4S,5S)-1-((S)-2-((1R,2R)-3-((2-Aminoethyl)amino)-1-methoxy-2-methyl-3-oxopropyl)pyrrolidin-1-yl)-3-methoxy-5-methyl-1-oxoheptan-4-yl)-2-((S)-2-(dimethylamino)-3-methylbutanamido)-N,3-dimethylbutanamide, TFA salt”, the step yield (late stage modification step) turned out to be 76% yield.
For the substance “N-Boc-4-Abz-Val-Dil-Dap-3-(2-aminoethyl)pyridine”, for the setting “coupling step”, the step yield is given as 70% yield.
Consider “4-Amino-N—((S)-1-(((3R,4S,5S)-3-methoxy-1-((S)-2-((1R,2R)-1-methoxy-2-methyl-3-oxo-3-((2-(pyridin-2-yl)ethyl)amino)propyl)pyrrolidin-1-yl)-5-methyl-1-oxoheptan-4-yl)(methyl)amino)-3-methyl-1-oxobutan-2-yl)benzamide, TFA salt”, for which, for the setting “late stage modification step”, the step yield is 91% yield.
Consider “(S)—N-((3R,4S,5S)-1-((S)-2-((1R,2R)-3-((2-(1H-Imidazol-4-yl)ethyl)amino)-1-methoxy-2-methyl-3-oxopropyl)pyrrolidin-1-yl)-3-methoxy-5-methyl-1-oxoheptan-4-yl)-N,3-dimethyl-2-((S)-3-methyl-2-(methylamino)butanamido)butanamide, TFA salt”, for which the step yield (late stage modification step) worked out at 51% yield.
In the case of “N—((S)-1-(((3R,4S,5S)-1-((S)-2-((1R,2R)-3-((2-(1H-Imidazol-4-yl)ethyl)amino)-1-methoxy-2-methyl-3-oxopropyl)pyrrolidin-1-yl)-3-methoxy-5-methyl-1-oxoheptan-4-yl)(methyl)amino)-3-methyl-1-oxobutan-2-yl)-4-aminobenzamide, TFA salt”, the step yield (purification step) is 70% yield.
